Data as given in PubChem BioAssay AID504764 (Drosophila RNAi Screening Center, 2011).
In all, the deposit lists about 22,000 reagents; shown is an unselected part of those that have a named target and a result. Over the whole deposit, 403 (1.9%) were called active. 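Unnormalised raw counts per well; ratio z-scores behind the hit calls and whether each hit raises or lowers signal are not deposited.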 A plus sign joins genes that one reagent is predicted to hit. Reagent sequences are not shown. The record does not give: the amount of reagent.

- Screen: 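Knock-downs that raise or lower a Notch target reporter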 (primary screen)
- Cell system: Drosophila Kc167 cells
- Knock-down reagent: long dsRNA against Drosophila genes
- Duration: about 5 days (4 days dsRNA, then 24 h after transfection)
- Treatment: transfection of constitutively active membrane-tethered Notch lacking the extracellular domain, read 24 h later
- Detection: 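Light from a Notch-responsive E(spl)m3 luciferase reporter under active Notch, with control-promoter and no-Notch reporter wells to normalise; raw counts from paired wells a and b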
- Reading the numbers: induced reporter light, run 1, well a and induced reporter light, run 1, well b: higher = more light from the Notch target reporter with active Notch; control promoter light, run 1, well a and control promoter light, run 1, well b: higher = more light from the viral control promoter (cell number, transfection, viability); uninduced reporter light, run 1, well a: higher = more light from the Notch target reporter without active Notch
- Call rule: 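Wells with low control signal or poorly matching duplicates excluded; duplicates averaged; per source plate, z beyond ±2 for induced/control log2 ratio or beyond ±1.8 for induced/uninduced marks a hit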
- Meaning of the calls: active = modifier hit (raised or lowered Notch signal); inactive = not a hit

For cdi [DRSC16922], what does the deposit list?
induced reporter light, run 1, well a: 1.72e5; induced reporter light, run 1, well b: 1.85e5; control promoter light, run 1, well a: 2.29e5; control promoter light, run 1, well b: 2.28e5; uninduced reporter light, run 1, well a: 16680; outcome: inactive

What is on record for CG34032 (retired record) [DRSC09225]?
induced reporter light, run 1, well a: 2.30e5; induced reporter light, run 1, well b: 2.63e5; control promoter light, run 1, well a: 2.41e5; control promoter light, run 1, well b: 2.53e5; uninduced reporter light, run 1, well a: 21692; outcome: inactive

For CG6688 [DRSC16094], how do the results read?
induced reporter light, run 1, well a: 1.36e5; induced reporter light, run 1, well b: 1.28e5; control promoter light, run 1, well a: 1.93e5; control promoter light, run 1, well b: 1.58e5; uninduced reporter light, run 1, well a: 11590; outcome: inactive

For CG13321 [DRSC06358], what was measured?
induced reporter light, run 1, well a: 55575; induced reporter light, run 1, well b: 49060; control promoter light, run 1, well a: 61110; control promoter light, run 1, well b: 67750; uninduced reporter light, run 1, well a: 7005; outcome: inactive

Which result is listed for CG9631 [DRSC14137]?
induced reporter light, run 1, well a: 1.40e5; induced reporter light, run 1, well b: 98645; control promoter light, run 1, well a: 1.12e5; control promoter light, run 1, well b: 1.08e5; uninduced reporter light, run 1, well a: 8910; outcome: inactive

For CG11777 [DRSC06081], what was measured?
induced reporter light, run 1, well a: 2.07e5; induced reporter light, run 1, well b: 1.71e5; control promoter light, run 1, well a: 1.83e5; control promoter light, run 1, well b: 2.15e5; uninduced reporter light, run 1, well a: 14810; outcome: inactive

What is on record for Hmg-2 [DRSC04554]?
induced reporter light, run 1, well a: 78725; induced reporter light, run 1, well b: 81110; control promoter light, run 1, well a: 71375; control promoter light, run 1, well b: 74880; uninduced reporter light, run 1, well a: 7220; outcome: inactive

What did the screen give for HisT [DRSC05051]?
induced reporter light, run 1, well a: 50710; induced reporter light, run 1, well b: 72975; control promoter light, run 1, well a: 78040; control promoter light, run 1, well b: 64995; uninduced reporter light, run 1, well a: 2940; outcome: inactive

With HisT [DRSC05052], how do the results read?
induced reporter light, run 1, well a: 51570; induced reporter light, run 1, well b: 55505; control promoter light, run 1, well a: 69080; control promoter light, run 1, well b: 81295; uninduced reporter light, run 1, well a: 2050; outcome: inactive

With HisT [DRSC06405], how do the results read?
induced reporter light, run 1, well a: 1.92e5; induced reporter light, run 1, well b: 1.80e5; control promoter light, run 1, well a: 1.31e5; control promoter light, run 1, well b: 1.40e5; uninduced reporter light, run 1, well a: 11535; outcome: inactive

Which result is listed for Gcat [DRSC09719]?
induced reporter light, run 1, well a: 1.42e5; induced reporter light, run 1, well b: 1.02e5; control promoter light, run 1, well a: 1.78e5; control promoter light, run 1, well b: 1.06e5; uninduced reporter light, run 1, well a: 7215; outcome: inactive

Which result is listed for l(3)04053 [DRSC11640]?
induced reporter light, run 1, well a: 1.18e5; induced reporter light, run 1, well b: 1.23e5; control promoter light, run 1, well a: 67060; control promoter light, run 1, well b: 67445; uninduced reporter light, run 1, well a: 8930; outcome: inactive

How did the screen score CG8507 [DRSC16435]?
induced reporter light, run 1, well a: 87105; induced reporter light, run 1, well b: 1.07e5; control promoter light, run 1, well a: 1.13e5; control promoter light, run 1, well b: 75200; uninduced reporter light, run 1, well a: 4650; outcome: inactive

With SMSr [DRSC10998], how do the results read?
induced reporter light, run 1, well a: 1.29e5; induced reporter light, run 1, well b: 1.12e5; control promoter light, run 1, well a: 73560; control promoter light, run 1, well b: 40360; uninduced reporter light, run 1, well a: 9690; outcome: inactive

What did the screen give for SMSr [DRSC10999]?
induced reporter light, run 1, well a: 1.65e5; induced reporter light, run 1, well b: 1.91e5; control promoter light, run 1, well a: 1.77e5; control promoter light, run 1, well b: 1.50e5; uninduced reporter light, run 1, well a: 5540; outcome: inactive

How did the screen score Rpn3 [DRSC03318]?
induced reporter light, run 1, well a: 9860; induced reporter light, run 1, well b: 11835; control promoter light, run 1, well a: 9970; control promoter light, run 1, well b: 13130; uninduced reporter light, run 1, well a: 880; outcome: inactive

What did the screen give for CR40450 + CG32767 [DRSC18387]?
induced reporter light, run 1, well a: 2.31e5; induced reporter light, run 1, well b: 2.28e5; control promoter light, run 1, well a: 2.88e5; control promoter light, run 1, well b: 2.76e5; uninduced reporter light, run 1, well a: 18705; outcome: inactive

Which result is listed for Dip-C [DRSC15855]?
induced reporter light, run 1, well a: 1.30e5; induced reporter light, run 1, well b: 1.22e5; control promoter light, run 1, well a: 81450; control promoter light, run 1, well b: 89740; uninduced reporter light, run 1, well a: 8570; outcome: inactive
